Experimental data taken from paper PMC8626462.

Sequences of proteins named here, by UniProt entry; tags and fusion partners are left off.
UniProt Q86U86: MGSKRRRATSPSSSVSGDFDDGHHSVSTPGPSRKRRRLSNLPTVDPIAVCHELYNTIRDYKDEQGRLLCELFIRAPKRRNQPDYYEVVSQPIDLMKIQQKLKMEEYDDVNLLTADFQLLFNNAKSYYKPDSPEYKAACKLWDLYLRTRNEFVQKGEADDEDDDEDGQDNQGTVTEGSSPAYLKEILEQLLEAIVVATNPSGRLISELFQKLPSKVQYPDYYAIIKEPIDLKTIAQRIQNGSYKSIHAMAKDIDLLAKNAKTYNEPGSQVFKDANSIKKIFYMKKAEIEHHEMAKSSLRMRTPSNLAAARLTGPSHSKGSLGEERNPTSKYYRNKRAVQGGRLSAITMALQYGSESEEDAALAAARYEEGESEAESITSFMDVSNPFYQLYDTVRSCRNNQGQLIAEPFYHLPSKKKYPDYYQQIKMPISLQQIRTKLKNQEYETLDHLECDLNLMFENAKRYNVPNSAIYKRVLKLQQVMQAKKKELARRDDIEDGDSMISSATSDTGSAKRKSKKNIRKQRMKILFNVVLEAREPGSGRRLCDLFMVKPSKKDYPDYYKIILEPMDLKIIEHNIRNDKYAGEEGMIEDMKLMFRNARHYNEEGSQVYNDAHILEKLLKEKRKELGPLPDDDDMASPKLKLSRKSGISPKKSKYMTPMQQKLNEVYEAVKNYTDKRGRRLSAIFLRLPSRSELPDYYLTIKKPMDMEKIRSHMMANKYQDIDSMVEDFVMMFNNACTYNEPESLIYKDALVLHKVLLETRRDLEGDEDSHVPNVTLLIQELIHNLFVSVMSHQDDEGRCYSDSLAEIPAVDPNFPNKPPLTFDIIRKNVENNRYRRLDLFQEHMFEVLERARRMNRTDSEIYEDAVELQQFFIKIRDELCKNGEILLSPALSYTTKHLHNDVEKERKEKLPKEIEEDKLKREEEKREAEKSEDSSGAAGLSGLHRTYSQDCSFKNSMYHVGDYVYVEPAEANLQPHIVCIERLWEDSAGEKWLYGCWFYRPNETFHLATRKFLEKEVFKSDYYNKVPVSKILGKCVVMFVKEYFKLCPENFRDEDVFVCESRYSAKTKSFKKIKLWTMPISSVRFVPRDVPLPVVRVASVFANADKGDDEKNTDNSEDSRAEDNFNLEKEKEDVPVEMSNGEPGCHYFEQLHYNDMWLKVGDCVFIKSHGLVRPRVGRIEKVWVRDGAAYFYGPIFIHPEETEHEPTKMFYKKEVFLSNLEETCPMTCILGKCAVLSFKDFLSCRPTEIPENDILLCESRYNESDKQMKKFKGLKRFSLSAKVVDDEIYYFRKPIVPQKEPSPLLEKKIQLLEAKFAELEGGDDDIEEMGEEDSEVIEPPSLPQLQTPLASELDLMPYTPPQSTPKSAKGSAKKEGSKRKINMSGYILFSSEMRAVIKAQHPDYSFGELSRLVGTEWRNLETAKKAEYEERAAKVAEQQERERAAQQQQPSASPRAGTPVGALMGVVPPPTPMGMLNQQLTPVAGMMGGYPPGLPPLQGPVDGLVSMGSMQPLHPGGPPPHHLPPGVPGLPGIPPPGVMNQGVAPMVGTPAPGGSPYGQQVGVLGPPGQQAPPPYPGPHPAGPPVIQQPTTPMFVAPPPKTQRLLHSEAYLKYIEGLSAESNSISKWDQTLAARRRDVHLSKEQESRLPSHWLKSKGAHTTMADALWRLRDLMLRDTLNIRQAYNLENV
UniProt Q9NPI1: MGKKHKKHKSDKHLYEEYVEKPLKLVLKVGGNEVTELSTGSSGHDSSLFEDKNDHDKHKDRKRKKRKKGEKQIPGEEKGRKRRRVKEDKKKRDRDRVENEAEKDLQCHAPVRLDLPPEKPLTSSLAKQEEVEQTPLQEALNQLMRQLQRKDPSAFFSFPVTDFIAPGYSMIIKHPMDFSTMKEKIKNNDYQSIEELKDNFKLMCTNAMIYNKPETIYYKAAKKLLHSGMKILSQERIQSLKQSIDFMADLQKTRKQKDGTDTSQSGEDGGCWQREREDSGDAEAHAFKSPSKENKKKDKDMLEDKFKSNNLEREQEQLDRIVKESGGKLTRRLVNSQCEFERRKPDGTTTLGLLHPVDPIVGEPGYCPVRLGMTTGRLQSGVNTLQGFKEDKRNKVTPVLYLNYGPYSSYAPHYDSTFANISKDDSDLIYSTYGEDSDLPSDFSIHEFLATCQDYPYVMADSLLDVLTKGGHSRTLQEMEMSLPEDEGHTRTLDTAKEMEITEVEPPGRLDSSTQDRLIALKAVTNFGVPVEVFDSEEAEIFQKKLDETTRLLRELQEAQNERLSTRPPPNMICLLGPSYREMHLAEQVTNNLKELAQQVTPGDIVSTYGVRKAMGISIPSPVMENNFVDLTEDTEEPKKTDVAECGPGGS
UniProt Q9BQE9: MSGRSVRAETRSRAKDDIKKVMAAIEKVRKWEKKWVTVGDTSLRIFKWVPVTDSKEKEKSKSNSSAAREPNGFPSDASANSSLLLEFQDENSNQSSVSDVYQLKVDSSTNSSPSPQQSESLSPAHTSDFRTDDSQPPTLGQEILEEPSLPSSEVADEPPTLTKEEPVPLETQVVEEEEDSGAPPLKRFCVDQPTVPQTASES
UniProt Q9H8M2: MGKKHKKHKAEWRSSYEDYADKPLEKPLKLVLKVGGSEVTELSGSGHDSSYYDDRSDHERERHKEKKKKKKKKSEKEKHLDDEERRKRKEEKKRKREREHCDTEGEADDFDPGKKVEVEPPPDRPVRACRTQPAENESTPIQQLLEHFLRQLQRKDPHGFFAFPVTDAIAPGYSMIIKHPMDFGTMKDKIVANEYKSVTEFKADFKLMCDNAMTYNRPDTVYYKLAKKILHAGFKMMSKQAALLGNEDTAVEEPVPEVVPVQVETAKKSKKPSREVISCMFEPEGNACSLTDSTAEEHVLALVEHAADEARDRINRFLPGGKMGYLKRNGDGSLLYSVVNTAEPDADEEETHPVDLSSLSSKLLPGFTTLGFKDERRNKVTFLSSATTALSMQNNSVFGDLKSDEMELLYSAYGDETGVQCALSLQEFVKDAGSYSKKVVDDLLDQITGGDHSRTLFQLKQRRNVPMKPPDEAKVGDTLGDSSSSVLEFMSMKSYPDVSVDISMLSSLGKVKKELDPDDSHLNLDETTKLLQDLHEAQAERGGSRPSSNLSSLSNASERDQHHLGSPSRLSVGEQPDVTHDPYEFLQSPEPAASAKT
UniProt Q92785: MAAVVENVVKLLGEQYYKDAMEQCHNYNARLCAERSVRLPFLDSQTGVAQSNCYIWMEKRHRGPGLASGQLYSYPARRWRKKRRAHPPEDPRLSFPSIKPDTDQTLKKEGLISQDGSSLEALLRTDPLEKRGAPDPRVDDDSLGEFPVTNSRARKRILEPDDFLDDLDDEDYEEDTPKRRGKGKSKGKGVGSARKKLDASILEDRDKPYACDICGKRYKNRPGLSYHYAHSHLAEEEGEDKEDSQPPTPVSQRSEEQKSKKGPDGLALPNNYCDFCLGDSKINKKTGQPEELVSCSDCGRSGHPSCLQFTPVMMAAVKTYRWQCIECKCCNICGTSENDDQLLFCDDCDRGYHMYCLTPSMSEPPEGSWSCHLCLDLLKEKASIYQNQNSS
UniProt Q92925: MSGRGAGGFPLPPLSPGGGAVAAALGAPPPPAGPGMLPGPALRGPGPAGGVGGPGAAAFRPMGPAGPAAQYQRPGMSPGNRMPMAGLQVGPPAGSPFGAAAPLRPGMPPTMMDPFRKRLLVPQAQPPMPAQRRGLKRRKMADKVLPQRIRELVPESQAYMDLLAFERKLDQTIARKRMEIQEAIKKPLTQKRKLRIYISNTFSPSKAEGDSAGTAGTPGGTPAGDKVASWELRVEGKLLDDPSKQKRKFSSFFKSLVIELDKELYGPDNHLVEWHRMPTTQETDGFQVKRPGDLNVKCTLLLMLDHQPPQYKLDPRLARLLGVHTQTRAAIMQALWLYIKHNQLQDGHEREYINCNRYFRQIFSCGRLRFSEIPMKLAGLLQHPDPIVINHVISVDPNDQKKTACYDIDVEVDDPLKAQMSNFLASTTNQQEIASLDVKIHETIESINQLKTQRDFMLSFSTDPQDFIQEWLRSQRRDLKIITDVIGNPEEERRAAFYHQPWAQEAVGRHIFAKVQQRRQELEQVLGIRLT
UniProt Q6STE5: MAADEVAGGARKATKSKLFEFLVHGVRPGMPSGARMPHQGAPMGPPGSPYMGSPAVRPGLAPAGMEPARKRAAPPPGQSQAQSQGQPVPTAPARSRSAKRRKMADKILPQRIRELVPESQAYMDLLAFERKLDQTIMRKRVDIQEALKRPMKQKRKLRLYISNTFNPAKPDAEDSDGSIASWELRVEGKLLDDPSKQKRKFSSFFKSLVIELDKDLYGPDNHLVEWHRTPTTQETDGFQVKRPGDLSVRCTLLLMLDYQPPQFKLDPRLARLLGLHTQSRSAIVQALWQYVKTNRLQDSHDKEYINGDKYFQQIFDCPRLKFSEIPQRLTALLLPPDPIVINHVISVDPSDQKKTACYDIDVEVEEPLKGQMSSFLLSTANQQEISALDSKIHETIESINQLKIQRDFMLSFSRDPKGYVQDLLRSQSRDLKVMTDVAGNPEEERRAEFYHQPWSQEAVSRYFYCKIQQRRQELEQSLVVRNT
UniProt P51531: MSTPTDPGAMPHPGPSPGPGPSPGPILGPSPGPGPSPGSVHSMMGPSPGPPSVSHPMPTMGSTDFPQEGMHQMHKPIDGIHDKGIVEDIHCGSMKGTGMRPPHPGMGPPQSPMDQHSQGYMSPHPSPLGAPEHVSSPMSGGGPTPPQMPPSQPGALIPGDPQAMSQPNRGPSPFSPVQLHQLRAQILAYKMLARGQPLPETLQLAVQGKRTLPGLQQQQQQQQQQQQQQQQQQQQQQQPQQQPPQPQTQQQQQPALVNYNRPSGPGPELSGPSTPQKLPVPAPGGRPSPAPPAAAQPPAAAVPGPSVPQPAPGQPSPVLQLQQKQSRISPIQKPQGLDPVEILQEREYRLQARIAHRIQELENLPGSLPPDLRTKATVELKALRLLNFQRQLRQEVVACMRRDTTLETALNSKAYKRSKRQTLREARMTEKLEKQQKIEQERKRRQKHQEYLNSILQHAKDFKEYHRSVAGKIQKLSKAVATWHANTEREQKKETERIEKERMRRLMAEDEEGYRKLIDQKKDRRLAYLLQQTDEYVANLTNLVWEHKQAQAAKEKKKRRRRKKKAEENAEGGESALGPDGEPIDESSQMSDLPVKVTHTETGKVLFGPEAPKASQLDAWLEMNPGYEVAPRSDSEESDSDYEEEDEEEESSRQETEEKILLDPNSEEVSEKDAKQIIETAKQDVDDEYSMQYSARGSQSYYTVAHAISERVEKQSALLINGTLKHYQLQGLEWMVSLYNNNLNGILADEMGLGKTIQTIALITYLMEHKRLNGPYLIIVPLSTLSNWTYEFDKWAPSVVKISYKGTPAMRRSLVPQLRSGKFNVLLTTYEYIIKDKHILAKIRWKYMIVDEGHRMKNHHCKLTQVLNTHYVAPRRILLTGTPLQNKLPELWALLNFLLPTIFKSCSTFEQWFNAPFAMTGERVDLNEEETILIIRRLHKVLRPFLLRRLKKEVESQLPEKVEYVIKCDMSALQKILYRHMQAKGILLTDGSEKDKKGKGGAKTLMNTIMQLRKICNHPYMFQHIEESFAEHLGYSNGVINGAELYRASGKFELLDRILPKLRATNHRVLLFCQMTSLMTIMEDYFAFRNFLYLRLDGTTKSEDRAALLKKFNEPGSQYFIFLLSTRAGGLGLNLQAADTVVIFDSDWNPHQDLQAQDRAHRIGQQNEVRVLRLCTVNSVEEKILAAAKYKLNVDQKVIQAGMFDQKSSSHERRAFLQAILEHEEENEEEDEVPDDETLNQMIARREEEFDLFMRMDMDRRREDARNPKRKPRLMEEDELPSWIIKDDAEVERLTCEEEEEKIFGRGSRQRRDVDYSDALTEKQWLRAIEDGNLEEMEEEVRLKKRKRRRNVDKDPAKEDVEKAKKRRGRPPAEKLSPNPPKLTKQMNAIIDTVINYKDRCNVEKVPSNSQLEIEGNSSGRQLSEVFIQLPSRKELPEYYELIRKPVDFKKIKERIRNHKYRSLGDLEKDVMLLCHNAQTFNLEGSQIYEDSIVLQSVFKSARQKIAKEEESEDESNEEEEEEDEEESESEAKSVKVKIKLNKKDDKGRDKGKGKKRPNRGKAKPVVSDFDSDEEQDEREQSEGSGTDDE
UniProt Q969G3: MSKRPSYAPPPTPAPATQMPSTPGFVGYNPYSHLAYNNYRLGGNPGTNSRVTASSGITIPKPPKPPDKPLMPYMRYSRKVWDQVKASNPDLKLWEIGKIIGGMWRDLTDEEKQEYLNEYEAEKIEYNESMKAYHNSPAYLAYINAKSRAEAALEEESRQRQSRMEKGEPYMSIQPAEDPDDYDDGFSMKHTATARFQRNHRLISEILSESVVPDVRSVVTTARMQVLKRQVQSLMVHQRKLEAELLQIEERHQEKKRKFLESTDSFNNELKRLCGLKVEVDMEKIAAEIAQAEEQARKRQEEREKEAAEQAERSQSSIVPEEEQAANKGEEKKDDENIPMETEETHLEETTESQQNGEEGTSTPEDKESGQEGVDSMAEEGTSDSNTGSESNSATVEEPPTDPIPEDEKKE

target: PBRM1 (human (endogenous in HEK293T, RH4, RH30)) (UniProt Q86U86); assay: affinity purification with mass spectrometry; SEC-IP-LCMS: 1-2 megadalton SEC fractions (16-18) of ammonium sulfate precipitated nuclear extracts of RH30 and RH4 cells, diluted 1:1 in SEC-IP buffer; 3 µg BRG1, PBRM1 (results also: BRM) or non-specific IgG antibody, ~16 h 4 °C; Protein A Dynabeads 4 h; on-bead trypsin digestion, LCMS

Row | Substance | binding
1 | BRD7 (from UniProt Q9NPI1 1-651) | binds

target: BRG1 (encoded by SMARCA4) (human (endogenous in HEK293T, RH4, RH30)) (UniProt P51532); assay: as above

Row | Substance | binding
2 | BCL7A (from UniProt Q4VC05 1-210) | binds
3 | BCL7B (from UniProt Q9BQE9 1-202) | binds
4 | BCL7C (from UniProt Q8WUZ0 1-217) | binds
5 | BRD9 (from UniProt Q9H8M2 1-597) | binds
6 | DPF2 (from UniProt Q92785 1-391) | binds
7 | GLTSCR1 (from UniProt Q9NZM4 1-1560) | binds
8 | SMARCC2 (from UniProt Q8TAQ2 1-1214) | binds
9 | SMARCD2 (from UniProt Q92925 1-531) | binds
10 | SMARCD3 (from UniProt Q6STE5 1-483) | binds
11 | SS18L1 (from UniProt O75177 1-396) | binds

target: BRM (encoded by SMARCA2) (human (endogenous in HEK293T, RH4)) (UniProt P51531); assay: as above

Row | Substance | binding
12 | PBRM1 (from UniProt Q86U86 1-1689) | binds
13 | SMARCD2 (from UniProt Q92925 1-531) | binds
14 | SMARCE1 (from UniProt Q969G3 1-411) | binds

No constants are given. Whether binding was seen depends on the method and setting. In cells and extracts the contact can be indirect. A yes stands for co-enrichment or nearness to the bait. Other partners may have been found.
